# Measured values: doi:10.1101/2024.05.20.594848
# No constants are given. Whether binding was seen depends on the method and setting. For some assays here: Binding seen in cells or lysates may run through a third protein.
# T1: mDCIR1-ECD mutated in the calcium-binding site (mDCIR1-ΔECD), chemically biotinylated (mouse) (UniProt Q923C7)
# T1 sequence (chain, biotin (chemical, EZ-Link Sulfo-NHS-LC-Biotin)): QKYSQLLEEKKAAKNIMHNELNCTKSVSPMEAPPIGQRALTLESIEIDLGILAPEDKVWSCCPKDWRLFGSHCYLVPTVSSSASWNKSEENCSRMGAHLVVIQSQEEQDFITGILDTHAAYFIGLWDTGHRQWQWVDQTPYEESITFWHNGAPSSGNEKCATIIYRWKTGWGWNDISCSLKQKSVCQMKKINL
# Assays:
# [1] = target: T1, mDCIR1-ECD mutated in the calcium-binding site (mDCIR1-ΔECD), chemically biotinylated (mouse); assay: pull-down
# [2] = target: mouse low-density lipoprotein receptor-related protein 1 (LRP1) β-chain (mouse (endogenous in BMDM)); assay: far-Western, overlay or dot blot
Molecule,binding [1],binding [2]
mouse low-density lipoprotein receptor-related protein 1 (LRP1) β-chain,no binding,
"mDCIR1-ECD mutated in the calcium-binding site (mDCIR1-ΔECD), chemically biotinylated (domain or fragment, UniProt Q923C7 70-262, biotin (chemical, EZ-Link Sulfo-NHS-LC-Biotin)) QKYSQLLEEKKAAKNIMHNELNCTKSVSPMEAPPIGQRALTLESIEIDLGILAPEDKVWSCCPKDWRLFGSHCYLVPTVSSSASWNKSEENCSRMGAHLVVIQSQEEQDFITGILDTHAAYFIGLWDTGHRQWQWVDQTPYEESITFWHNGAPSSGNEKCATIIYRWKTGWGWNDISCSLKQKSVCQMKKINL",,no binding (tested: 3-5 µg/mL)
